Amino acid sequences for entries named in this document (tags omitted).
UniProt Q06609: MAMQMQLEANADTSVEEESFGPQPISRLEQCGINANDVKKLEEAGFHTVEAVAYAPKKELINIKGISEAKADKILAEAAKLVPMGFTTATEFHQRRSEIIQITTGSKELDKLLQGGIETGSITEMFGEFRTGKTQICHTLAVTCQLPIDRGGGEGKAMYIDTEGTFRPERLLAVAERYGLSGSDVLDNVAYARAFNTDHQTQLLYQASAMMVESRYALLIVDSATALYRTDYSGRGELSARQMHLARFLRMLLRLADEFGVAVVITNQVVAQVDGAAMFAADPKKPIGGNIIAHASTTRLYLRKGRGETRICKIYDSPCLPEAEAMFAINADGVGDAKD

According to paper PMC10484675:

Key:
[1] = molecular target: T1, SFB-tagged wild-type FIGNL1 (human) (human) (UniProt Q6PIW4); test: affinity purification with mass spectrometry; Supplementary Figure S7A, called 'anti-FIGNL1 immunoprecipitant' in the text; taken as the tandem affinity purification of SFB-tagged human FIGNL1 from stable HEK293T cells told in the methods (4 mM HU 3 h, NETN buffer with benzonase)
T1 sequence: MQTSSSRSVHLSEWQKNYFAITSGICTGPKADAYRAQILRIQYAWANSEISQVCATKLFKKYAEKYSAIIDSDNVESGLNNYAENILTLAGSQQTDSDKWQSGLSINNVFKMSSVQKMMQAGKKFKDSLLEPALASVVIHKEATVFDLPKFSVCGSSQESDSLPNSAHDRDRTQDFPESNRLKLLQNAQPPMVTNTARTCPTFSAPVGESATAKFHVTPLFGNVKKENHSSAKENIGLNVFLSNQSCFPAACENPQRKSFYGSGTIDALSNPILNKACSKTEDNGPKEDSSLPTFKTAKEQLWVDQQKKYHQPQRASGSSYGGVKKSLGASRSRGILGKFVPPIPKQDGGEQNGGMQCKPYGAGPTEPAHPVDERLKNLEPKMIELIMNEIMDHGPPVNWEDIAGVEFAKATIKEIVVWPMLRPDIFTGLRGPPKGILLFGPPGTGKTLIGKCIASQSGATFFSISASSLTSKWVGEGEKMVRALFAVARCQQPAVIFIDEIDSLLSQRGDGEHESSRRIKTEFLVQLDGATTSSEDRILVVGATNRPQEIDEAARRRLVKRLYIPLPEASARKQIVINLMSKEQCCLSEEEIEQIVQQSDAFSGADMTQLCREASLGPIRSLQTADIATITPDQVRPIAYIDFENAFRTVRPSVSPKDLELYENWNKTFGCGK

[2] = molecular target: T2, SFB-tagged wild-type FLIP (human) (human) (UniProt Q9NSG2); test: affinity purification with mass spectrometry; tandem affinity purification (streptavidin-sepharose, biotin elution, S-protein beads) of SFB-tagged human FLIP from stable HEK293T cells treated with 4 mM HU for 3 h; NETN buffer with benzonase; bands analysed by mass spectrometry
T2 sequence: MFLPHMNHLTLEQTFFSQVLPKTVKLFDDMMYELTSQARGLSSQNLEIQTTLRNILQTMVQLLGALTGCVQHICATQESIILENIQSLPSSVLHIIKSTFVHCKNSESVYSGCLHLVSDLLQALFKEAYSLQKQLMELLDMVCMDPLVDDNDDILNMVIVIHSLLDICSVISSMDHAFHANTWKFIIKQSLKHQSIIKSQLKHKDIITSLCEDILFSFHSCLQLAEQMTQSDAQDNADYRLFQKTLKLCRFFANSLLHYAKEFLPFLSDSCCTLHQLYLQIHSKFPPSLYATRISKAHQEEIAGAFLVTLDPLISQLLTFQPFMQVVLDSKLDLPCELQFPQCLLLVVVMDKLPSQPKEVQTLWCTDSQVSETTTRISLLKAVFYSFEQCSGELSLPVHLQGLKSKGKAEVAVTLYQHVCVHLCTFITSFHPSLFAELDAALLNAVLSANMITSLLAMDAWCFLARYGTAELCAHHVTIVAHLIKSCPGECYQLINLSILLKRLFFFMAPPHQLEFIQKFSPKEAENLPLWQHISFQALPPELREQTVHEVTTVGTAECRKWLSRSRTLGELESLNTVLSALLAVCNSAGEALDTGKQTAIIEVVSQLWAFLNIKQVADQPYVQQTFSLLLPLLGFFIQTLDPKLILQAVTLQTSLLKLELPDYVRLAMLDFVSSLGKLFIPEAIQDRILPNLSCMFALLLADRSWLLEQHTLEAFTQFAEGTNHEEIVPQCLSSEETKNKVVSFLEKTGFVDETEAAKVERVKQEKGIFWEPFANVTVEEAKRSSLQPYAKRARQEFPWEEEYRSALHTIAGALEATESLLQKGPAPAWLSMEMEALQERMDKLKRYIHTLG

[3] = molecular target: T1, SFB-tagged wild-type FIGNL1 (human) (human); test: affinity purification with mass spectrometry; Supplementary Figure S7A, called 'anti-FIGNL1 immunoprecipitant' in the text; taken as the tandem affinity purification of SFB-tagged human FIGNL1 from stable HEK293T cells told in the methods (4 mM HU 3 h, NETN buffer with benzonase); remark: listed apart in the source

With “RAD51 (endogenous, human HEK293T cells) (from UniProt Q06609 1-339)” the binding [1] was “binds”.

B1: FIGNL1 (endogenous, human HEK293T cells) (protein, UniProt Q6PIW4 1-674)
chain: MQTSSSRSVHLSEWQKNYFAITSGICTGPKADAYRAQILRIQYAWANSEISQVCATKLFKKYAEKYSAIIDSDNVESGLNNYAENILTLAGSQQTDSDKWQSGLSINNVFKMSSVQKMMQAGKKFKDSLLEPALASVVIHKEATVFDLPKFSVCGSSQESDSLPNSAHDRDRTQDFPESNRLKLLQNAQPPMVTNTARTCPTFSAPVGESATAKFHVTPLFGNVKKENHSSAKENIGLNVFLSNQSCFPAACENPQRKSFYGSGTIDALSNPILNKACSKTEDNGPKEDSSLPTFKTAKEQLWVDQQKKYHQPQRASGSSYGGVKKSLGASRSRGILGKFVPPIPKQDGGEQNGGMQCKPYGAGPTEPAHPVDERLKNLEPKMIELIMNEIMDHGPPVNWEDIAGVEFAKATIKEIVVWPMLRPDIFTGLRGPPKGILLFGPPGTGKTLIGKCIASQSGATFFSISASSLTSKWVGEGEKMVRALFAVARCQQPAVIFIDEIDSLLSQRGDGEHESSRRIKTEFLVQLDGATTSSEDRILVVGATNRPQEIDEAARRRLVKRLYIPLPEASARKQIVINLMSKEQCCLSEEEIEQIVQQSDAFSGADMTQLCREASLGPIRSLQTADIATITPDQVRPIAYIDFENAFRTVRPSVSPKDLELYENWNKTFGCGK
With B1 the binding [2] was “binds”.

B2: FLIP (endogenous, human HEK293T cells) (protein, UniProt Q9NSG2 1-853)
chain: MFLPHMNHLTLEQTFFSQVLPKTVKLFDDMMYELTSQARGLSSQNLEIQTTLRNILQTMVQLLGALTGCVQHICATQESIILENIQSLPSSVLHIIKSTFVHCKNSESVYSGCLHLVSDLLQALFKEAYSLQKQLMELLDMVCMDPLVDDNDDILNMVIVIHSLLDICSVISSMDHAFHANTWKFIIKQSLKHQSIIKSQLKHKDIITSLCEDILFSFHSCLQLAEQMTQSDAQDNADYRLFQKTLKLCRFFANSLLHYAKEFLPFLSDSCCTLHQLYLQIHSKFPPSLYATRISKAHQEEIAGAFLVTLDPLISQLLTFQPFMQVVLDSKLDLPCELQFPQCLLLVVVMDKLPSQPKEVQTLWCTDSQVSETTTRISLLKAVFYSFEQCSGELSLPVHLQGLKSKGKAEVAVTLYQHVCVHLCTFITSFHPSLFAELDAALLNAVLSANMITSLLAMDAWCFLARYGTAELCAHHVTIVAHLIKSCPGECYQLINLSILLKRLFFFMAPPHQLEFIQKFSPKEAENLPLWQHISFQALPPELREQTVHEVTTVGTAECRKWLSRSRTLGELESLNTVLSALLAVCNSAGEALDTGKQTAIIEVVSQLWAFLNIKQVADQPYVQQTFSLLLPLLGFFIQTLDPKLILQAVTLQTSLLKLELPDYVRLAMLDFVSSLGKLFIPEAIQDRILPNLSCMFALLLADRSWLLEQHTLEAFTQFAEGTNHEEIVPQCLSSEETKNKVVSFLEKTGFVDETEAAKVERVKQEKGIFWEPFANVTVEEAKRSSLQPYAKRARQEFPWEEEYRSALHTIAGALEATESLLQKGPAPAWLSMEMEALQERMDKLKRYIHTLG
B2 was tested, and the binding [3] was “binds”.

Read-outs that look alike come from different tables or passages of the source. These are yes or no findings as the source states them, for the method shown. In cells and extracts the contact can be indirect. Here binding means that the protein was enriched with, or labelled near, the bait; the list need not be complete. Where a sequence is shown, tags or fusion partners need not be part of it.
